Source: US20150241442A1
No constants are given. Whether binding was seen depends on the method and setting. Binding seen in cells or lysates may run through a third protein. Some binding calls cover weakened binding; strength is not graded here.

Amino acid sequences for entries named in this document (tags omitted). Residues count along the entry.
UniProt P05107, residues 23-769: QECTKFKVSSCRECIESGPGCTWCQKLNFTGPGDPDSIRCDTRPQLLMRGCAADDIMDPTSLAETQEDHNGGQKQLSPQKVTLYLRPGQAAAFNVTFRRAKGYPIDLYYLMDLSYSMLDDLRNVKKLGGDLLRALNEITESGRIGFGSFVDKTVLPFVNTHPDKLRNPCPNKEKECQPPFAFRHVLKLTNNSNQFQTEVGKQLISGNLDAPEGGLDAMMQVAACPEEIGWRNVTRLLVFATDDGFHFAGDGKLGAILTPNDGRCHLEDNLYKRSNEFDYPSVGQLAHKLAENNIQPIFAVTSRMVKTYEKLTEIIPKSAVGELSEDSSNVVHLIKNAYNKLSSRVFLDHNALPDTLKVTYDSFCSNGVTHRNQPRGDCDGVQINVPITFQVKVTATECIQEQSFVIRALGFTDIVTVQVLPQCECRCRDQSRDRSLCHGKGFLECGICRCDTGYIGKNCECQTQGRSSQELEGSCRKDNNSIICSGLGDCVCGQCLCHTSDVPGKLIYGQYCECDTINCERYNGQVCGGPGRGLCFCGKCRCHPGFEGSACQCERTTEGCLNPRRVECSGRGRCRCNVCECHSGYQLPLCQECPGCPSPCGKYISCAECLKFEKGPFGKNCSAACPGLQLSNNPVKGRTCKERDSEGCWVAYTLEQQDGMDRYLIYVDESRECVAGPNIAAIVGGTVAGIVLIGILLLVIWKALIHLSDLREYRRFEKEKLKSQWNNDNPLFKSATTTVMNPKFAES
UniProt Q14289: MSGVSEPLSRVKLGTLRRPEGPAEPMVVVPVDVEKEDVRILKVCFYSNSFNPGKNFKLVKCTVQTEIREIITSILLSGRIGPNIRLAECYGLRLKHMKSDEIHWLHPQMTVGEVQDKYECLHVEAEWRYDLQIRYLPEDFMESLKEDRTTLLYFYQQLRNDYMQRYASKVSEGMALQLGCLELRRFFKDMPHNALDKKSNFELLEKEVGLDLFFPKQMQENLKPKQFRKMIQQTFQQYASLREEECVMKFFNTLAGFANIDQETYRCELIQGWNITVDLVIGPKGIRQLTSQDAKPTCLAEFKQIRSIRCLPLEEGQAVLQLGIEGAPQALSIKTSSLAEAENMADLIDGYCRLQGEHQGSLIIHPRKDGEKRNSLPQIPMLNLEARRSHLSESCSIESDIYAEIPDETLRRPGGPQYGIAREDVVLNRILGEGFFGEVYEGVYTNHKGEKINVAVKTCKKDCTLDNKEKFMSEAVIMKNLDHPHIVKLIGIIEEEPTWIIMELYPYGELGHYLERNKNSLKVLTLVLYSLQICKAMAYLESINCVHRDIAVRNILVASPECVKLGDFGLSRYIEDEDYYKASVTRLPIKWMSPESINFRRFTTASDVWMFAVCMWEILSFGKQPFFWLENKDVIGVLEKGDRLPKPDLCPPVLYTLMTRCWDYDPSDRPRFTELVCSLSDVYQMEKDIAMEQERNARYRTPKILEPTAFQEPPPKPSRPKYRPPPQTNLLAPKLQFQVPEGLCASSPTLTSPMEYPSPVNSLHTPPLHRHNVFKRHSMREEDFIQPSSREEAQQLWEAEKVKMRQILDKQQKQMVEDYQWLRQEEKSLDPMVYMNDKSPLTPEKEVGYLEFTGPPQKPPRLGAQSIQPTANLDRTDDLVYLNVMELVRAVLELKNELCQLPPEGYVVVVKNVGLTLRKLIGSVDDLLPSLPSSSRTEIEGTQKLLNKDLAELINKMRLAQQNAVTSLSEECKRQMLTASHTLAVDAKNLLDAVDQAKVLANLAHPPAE

What was measured:
[1] = biological target: β2 integrin (LFA-1 subunit, Jurkat cells) (human (Jurkat T cells)) (UniProt P05107); test: co-immunoprecipitation (FIG. 36B)
[2] = biological target: β2 integrin (LFA-1 subunit, Jurkat cells) (human (Jurkat T cells)) (UniProt P05107); test: co-immunoprecipitation from Jurkat cells (FIG. 16B)
[3] = biological target: β2 integrin (LFA-1 subunit, Jurkat cells) (human (Jurkat T cells)) (UniProt P05107); test: co-immunoprecipitation from Jurkat cells (FIG. 36B)
[4] = biological target: β2 integrin (LFA-1 subunit, Jurkat cells) (human (Jurkat T cells)) (UniProt P05107); test: co-immunoprecipitation (FIG. 16B)
[5] = biological target: β2 integrin (LFA-1 subunit, Jurkat cells) (human (Jurkat T cells)) (UniProt P05107); test: reciprocal co-immunoprecipitation from Jurkat cells (FIG. 16B)

Measured: binding

proline-rich tyrosine kinase 2 (PYK2) (from UniProt Q14289 1-1009) (enzyme)
binds: all assays above
